# The supplement of paper PMC6411743
# Sequences of proteins named here, by UniProt entry; tags and fusion partners are left off. A change or cut given only in a name is not applied to a line headed by its entry.
# UniProt Q96EA4: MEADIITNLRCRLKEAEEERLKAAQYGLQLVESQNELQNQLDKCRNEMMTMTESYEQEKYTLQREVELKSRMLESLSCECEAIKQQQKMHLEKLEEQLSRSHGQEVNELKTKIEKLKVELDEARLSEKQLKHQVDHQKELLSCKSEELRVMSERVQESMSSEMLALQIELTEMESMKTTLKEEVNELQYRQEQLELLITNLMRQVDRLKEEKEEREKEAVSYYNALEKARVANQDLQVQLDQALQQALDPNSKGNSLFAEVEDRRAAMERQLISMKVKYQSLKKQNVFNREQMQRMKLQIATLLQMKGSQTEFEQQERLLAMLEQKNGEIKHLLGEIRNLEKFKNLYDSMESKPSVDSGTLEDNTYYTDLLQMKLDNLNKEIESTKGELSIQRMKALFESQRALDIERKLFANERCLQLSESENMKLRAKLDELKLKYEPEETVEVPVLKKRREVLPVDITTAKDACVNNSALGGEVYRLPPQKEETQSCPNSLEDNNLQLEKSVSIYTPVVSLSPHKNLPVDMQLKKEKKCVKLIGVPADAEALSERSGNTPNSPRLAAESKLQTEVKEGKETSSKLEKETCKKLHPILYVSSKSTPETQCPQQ
# UniProt Q8WXX5: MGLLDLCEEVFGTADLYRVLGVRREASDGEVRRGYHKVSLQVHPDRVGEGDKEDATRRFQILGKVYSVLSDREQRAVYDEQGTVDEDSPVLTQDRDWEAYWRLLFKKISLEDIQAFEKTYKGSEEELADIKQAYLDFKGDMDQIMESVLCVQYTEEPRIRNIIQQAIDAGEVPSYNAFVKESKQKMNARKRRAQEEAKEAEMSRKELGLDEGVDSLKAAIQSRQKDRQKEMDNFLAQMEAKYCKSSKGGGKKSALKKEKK
# UniProt Q92608: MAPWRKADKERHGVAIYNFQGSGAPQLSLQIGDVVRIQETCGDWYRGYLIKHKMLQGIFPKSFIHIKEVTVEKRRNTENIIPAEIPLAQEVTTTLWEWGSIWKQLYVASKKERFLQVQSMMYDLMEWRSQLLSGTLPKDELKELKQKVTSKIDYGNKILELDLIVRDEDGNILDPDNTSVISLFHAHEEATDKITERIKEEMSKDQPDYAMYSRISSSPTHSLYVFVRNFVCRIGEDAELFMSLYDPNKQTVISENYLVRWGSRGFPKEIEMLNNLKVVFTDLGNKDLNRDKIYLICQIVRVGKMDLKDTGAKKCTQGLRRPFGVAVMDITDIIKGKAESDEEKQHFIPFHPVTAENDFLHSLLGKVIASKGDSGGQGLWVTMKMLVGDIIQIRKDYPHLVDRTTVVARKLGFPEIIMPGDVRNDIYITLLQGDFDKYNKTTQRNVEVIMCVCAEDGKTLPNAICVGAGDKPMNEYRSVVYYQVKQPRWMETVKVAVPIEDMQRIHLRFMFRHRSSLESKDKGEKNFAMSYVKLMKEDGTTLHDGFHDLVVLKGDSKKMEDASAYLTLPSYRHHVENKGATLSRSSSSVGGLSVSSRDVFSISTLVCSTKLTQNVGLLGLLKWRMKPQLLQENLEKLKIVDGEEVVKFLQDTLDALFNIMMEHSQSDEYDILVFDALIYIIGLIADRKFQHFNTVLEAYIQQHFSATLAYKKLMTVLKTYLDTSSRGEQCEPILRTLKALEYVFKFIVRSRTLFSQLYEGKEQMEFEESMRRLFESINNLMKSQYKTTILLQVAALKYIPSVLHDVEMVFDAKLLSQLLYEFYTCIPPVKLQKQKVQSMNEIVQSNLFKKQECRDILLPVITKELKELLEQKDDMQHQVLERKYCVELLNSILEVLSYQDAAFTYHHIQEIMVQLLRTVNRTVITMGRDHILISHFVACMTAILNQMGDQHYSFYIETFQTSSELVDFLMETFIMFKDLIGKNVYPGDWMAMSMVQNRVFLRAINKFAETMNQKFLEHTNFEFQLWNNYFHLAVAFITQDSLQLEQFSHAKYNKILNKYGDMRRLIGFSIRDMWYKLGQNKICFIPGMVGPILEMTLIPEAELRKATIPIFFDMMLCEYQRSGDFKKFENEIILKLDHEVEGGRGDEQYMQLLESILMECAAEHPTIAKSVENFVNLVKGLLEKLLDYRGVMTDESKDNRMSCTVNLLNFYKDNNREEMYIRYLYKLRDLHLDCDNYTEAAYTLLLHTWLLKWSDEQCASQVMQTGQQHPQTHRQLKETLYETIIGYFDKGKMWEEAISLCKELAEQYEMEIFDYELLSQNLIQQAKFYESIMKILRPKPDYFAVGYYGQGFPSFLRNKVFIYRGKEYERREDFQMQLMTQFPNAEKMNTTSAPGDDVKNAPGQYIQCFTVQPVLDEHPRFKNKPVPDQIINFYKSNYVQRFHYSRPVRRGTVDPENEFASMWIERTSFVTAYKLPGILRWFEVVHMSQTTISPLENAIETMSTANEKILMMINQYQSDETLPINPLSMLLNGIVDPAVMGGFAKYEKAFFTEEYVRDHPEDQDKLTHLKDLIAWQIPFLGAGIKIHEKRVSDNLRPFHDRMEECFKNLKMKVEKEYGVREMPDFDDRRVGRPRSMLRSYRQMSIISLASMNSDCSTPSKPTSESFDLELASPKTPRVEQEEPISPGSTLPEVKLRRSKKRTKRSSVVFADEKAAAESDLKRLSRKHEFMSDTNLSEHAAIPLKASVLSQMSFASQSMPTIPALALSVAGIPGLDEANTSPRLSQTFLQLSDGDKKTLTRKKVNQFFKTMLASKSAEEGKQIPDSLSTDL
# UniProt Q92522: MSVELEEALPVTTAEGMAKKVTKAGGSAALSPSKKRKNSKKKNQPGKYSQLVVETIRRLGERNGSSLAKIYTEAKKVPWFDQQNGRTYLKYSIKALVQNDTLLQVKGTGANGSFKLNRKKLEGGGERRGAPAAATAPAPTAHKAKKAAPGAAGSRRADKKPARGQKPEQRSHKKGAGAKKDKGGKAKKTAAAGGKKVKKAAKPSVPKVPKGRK
# UniProt Q92609: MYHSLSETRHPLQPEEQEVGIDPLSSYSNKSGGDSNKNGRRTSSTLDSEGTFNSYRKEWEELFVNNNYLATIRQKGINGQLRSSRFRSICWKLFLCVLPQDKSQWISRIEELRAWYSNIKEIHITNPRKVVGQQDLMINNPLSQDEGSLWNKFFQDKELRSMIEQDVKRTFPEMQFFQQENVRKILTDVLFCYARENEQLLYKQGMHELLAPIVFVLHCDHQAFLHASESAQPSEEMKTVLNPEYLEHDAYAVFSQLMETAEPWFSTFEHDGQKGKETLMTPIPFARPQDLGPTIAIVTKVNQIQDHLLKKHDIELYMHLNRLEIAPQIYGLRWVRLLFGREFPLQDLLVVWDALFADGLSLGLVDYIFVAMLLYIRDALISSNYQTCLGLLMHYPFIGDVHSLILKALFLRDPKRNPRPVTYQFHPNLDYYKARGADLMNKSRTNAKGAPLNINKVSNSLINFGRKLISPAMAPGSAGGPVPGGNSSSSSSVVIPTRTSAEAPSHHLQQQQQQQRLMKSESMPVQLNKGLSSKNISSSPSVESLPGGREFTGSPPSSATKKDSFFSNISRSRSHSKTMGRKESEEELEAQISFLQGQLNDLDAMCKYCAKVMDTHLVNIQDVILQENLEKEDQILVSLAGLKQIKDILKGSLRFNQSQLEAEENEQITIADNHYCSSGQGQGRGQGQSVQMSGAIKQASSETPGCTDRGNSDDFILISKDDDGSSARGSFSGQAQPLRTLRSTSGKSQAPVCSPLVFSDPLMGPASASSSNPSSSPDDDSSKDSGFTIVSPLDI
# UniProt Q96EZ8, whole entry: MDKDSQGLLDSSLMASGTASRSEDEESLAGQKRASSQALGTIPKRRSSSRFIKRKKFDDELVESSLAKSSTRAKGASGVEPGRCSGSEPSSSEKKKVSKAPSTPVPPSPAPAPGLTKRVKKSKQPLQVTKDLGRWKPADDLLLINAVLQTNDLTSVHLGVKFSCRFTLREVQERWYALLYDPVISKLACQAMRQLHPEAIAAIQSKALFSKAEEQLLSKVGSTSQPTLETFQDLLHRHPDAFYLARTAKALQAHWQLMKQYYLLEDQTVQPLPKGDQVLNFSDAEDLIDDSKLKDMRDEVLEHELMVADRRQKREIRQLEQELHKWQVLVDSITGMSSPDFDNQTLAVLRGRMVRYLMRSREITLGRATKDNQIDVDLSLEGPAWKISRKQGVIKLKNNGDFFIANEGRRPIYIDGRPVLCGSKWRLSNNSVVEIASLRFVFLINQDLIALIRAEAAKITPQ
# UniProt Q96CW5, whole entry: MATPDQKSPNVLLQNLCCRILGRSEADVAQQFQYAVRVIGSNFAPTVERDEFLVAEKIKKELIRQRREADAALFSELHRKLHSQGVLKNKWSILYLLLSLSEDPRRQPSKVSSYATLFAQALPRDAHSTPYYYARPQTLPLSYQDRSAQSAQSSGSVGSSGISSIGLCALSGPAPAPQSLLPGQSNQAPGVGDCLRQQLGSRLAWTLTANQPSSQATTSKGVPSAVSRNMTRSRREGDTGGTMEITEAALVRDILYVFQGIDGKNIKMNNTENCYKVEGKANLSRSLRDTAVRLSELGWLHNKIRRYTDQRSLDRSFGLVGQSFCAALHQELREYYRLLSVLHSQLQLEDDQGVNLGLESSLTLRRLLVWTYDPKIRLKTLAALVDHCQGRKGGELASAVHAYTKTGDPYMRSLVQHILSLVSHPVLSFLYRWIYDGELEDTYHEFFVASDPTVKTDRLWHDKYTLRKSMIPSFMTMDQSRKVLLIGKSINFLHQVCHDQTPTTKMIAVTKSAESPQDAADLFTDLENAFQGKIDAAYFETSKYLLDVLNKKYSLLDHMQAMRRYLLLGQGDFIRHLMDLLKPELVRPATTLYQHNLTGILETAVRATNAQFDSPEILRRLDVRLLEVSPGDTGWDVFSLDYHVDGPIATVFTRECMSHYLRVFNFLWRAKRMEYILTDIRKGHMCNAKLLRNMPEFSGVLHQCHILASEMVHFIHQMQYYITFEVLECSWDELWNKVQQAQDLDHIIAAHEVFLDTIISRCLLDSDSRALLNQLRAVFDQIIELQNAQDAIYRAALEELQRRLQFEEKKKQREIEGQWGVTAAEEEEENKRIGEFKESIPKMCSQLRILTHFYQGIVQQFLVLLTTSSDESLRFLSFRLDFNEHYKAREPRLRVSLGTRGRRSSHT
# UniProt Q96IY1: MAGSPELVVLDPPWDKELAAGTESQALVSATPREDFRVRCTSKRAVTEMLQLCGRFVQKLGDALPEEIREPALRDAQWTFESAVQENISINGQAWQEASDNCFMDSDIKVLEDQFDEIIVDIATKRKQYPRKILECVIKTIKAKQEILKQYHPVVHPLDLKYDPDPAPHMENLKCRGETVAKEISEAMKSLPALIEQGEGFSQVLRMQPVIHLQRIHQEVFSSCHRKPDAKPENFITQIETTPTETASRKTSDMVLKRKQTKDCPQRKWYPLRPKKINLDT
# UniProt Q96BX8: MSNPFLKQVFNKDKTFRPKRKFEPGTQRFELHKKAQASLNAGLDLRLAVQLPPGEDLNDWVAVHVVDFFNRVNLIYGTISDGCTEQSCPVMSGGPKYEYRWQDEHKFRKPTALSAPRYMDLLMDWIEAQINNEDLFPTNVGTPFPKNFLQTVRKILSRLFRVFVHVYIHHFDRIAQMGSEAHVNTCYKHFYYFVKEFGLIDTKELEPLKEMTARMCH
# UniProt Q96G23: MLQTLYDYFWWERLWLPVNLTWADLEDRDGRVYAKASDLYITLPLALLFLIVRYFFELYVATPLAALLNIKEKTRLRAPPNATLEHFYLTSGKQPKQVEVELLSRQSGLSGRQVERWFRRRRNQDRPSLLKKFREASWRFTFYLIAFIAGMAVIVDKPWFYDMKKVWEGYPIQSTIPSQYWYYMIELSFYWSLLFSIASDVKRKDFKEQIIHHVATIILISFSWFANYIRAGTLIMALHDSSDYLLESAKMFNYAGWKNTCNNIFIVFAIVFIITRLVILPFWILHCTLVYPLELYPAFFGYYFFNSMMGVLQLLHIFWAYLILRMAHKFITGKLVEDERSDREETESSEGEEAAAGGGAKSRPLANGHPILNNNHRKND
# UniProt Q8WVM8, whole entry, looked up: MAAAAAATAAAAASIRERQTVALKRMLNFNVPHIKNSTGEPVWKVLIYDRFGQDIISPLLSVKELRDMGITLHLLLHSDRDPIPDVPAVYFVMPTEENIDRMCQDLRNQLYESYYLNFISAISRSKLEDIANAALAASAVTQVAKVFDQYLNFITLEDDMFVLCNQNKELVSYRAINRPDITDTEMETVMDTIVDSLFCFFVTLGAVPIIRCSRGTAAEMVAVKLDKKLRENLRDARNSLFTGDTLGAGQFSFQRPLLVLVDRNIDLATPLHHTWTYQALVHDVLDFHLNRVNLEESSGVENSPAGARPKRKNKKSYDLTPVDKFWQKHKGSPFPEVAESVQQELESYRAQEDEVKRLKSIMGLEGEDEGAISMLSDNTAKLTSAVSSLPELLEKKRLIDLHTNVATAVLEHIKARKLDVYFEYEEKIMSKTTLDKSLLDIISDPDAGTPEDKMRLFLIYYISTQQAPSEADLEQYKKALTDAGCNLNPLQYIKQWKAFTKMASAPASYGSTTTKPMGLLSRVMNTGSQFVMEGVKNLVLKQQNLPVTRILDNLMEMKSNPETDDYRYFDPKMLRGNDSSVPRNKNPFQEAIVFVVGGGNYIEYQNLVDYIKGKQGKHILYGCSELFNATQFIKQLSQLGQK
# ± gives the standard deviation of the averaged measurements. The list shows a part of the results.
# Compound: Nc1nc2c(ncn2[C@@H]2O[C@H](COP(=O)(O)OP(=O)(O)OP(=O)(O)O)[C@@H](O)[C@H]2O)c(=O)[nH]1 [guanosine triphosphate]
# Experiment: NP40-soluble protein abundance relative to vehicle (solubility fold change) (ratio); higher = more soluble protein in presence of GTP
# Details: concentration: 10mM
# Procedure, shortened: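 Jurkat crude lysate prepared with a Dounce homogeniser was treated at eight concentrations spanning 0.1 to 10 mM, 10 min at room temperature then 3 min at 37 °C. Solubilisation with 0.8% NP40 and benzonase and ultracentrifugation preceded TMT labelling of the supernatant for LC-MS/MS. Fold change against the detergent-processed vehicle was determined per replicate from vsn-normalised intensities, across three independent experiments.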
row,Target,NP40-soluble protein abundance
1,DHX38 (UniProt Q92620),1.19 ± 0.049
2,UniProt Q96BD5 and related entries,1.16 ± 0.12
3,UniProt Q96EA4 and related entries,0.995 ± 0.024
4,KTI12 (UniProt Q96EK9),1.04 ± 0.027
5,UniProt Q93074 and related entries,1.33 ± 0.21
6,UniProt Q96AG3 and related entries,1.04 ± 0.11
7,RFK (UniProt Q969G6),0.853 ± 0.042
8,UniProt Q96EY5 and related entries,0.97 ± 0.07
9,UniProt Q8WWV3 and related entries,0.883 ± 0.061
10,UniProt Q8WUY1,0.988 ± 0.071
11,TRUB1 (UniProt Q8WWH5),0.894 ± 0.051
12,TSEN15 (UniProt Q8WW01),0.916 ± 0.068
13,NUP205 (UniProt Q92621),1.08 ± 0.097
14,UniProt Q96FJ0 and related entries,1.03 ± 0.14
15,TOPBP1 (UniProt Q92547),0.9898 ± 0.0049
16,DNAJC9 (UniProt Q8WXX5),1.53 ± 0.11
17,UniProt Q92608 and related entries,1.09 ± 0.062
18,ITPKC (UniProt Q96DU7),0.98 ± 0.049
19,H1FX (UniProt Q92522),1.41 ± 0.24

# 11 successive records from above:
row,Target,NP40-soluble protein abundance
8,UniProt Q96EY5 and related entries,0.97 ± 0.07
9,UniProt Q8WWV3 and related entries,0.883 ± 0.061
10,UniProt Q8WUY1,0.988 ± 0.071
11,TRUB1 (UniProt Q8WWH5),0.894 ± 0.051
12,TSEN15 (UniProt Q8WW01),0.916 ± 0.068
13,NUP205 (UniProt Q92621),1.08 ± 0.097
14,UniProt Q96FJ0 and related entries,1.03 ± 0.14
15,TOPBP1 (UniProt Q92547),0.9898 ± 0.0049
16,DNAJC9 (UniProt Q8WXX5),1.53 ± 0.11
17,UniProt Q92608 and related entries,1.09 ± 0.062
18,ITPKC (UniProt Q96DU7),0.98 ± 0.049

# Later entries:

row,Target,NP40-soluble protein abundance
1,CHMP7 (UniProt Q8WUX9),0.889 ± 0.084
2,UniProt Q92609 and related entries,0.939 ± 0.067
3,EFHD2 (UniProt Q96C19),0.897 ± 0.12
4,PPP1R13L (UniProt Q8WUF5),1.14 ± 0.017
5,UniProt Q96EZ8 and related entries,1.37 ± 0.17
6,UniProt Q96CW5 and related entries,1.33 ± 0.4
7,UniProt Q969T7 and related entries,0.839 ± 0.038
8,NSL1 (UniProt Q96IY1),0.932 ± 0.06
9,UniProt Q92610 and related entries,1.29 ± 0.11
10,TGFBRAP1 (UniProt Q8WUH2),1.07 ± 0.09
11,UniProt Q92615,1.34 ± 0.11
12,EXOC4 (UniProt Q96A65),0.995 ± 0.045
13,UniProt Q96DF8,1.14 ± 0.064
14,UniProt Q96BX8,0.828 ± 0.14
15,RPGR (UniProt Q92834),0.975 ± 0.095
16,UniProt Q96G23,0.935 ± 0.096
17,UniProt Q8WX93 and related entries,0.9261 ± 0.0074
18,SCFD1 (UniProt Q8WVM8),0.9325 ± 0.0018
